According to patent publication US9872840B2, “Effect of garcinol in delaying the progression of diabetic nephropathy” (Delhi Institute of Pharmaceutical Sciences and Research, priority 2013, dated 2018):

Test: Body weight of STZ diabetic rats after 8 weeks treatment
Assay type: in vivo, rat
Conditions: once daily for 8 weeks, garcinol 200 mg/kg, olmesartan 6 mg/kg/day, glimepiride 1 mg/kg/day, mean ± S.E.M., eight animals

SMILES | Body weight, after treatment [g]
CCC1=C(C)CN(C(=O)NCCc2ccc(S(=O)(=O)NC(=O)N[C@H]3CC[C@H](C)CC3)cc2)C1=O [Glimepiride, glimepiride] | 208.3 ± 3.1
CCCc1nc(C(C)(C)O)c(C(=O)OCc2oc(=O)oc2C)n1Cc1ccc(-c2ccccc2-c2nnn[nH]2)cc1 [Olmesartan, olmesartan medoxomil] | 216.7 ± 4.77
